These are yes or no findings as the source states them, for the method shown. In cells and extracts the contact can be indirect. A yes stands for co-enrichment or nearness to the bait. Other partners may have been found. Sequences can lack the tags named with a protein.
Biological target: T1, S-Adenosylmethionine lyase (SAMase) of bacteriophage T3, C-terminal His-tagged (bacteriophage T3) (UniProt P07693)
T1 sequence: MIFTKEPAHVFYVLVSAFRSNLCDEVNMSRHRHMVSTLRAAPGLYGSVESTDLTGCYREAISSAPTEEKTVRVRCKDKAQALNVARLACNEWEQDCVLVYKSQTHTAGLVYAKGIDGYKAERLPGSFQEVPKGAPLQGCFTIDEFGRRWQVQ
Test: affinity purification with mass spectrometry; His-tagged SAMase expressed in E. coli, Ni-NTA then SEC (Superdex 200, 25 mM Tris pH 8.0, 150 mM KCl, 1 mM DTT); co-purifying ∼43 kDa band cut from SDS-PAGE and identified by LC-MS/MS

binding: binds
B1: E. coli methionine S-adenosyltransferase (MAT), recombinant, C-terminal His6 (enzyme, E. coli MG1655, UniProt P0A817 1-384, looked up)
chain: MAKHLFTSESVSEGHPDKIADQISDAVLDAILEQDPKARVACETYVKTGMVLVGGEITTSAWVDIEEITRNTVREIGYVHSDMGFDANSCAVLSAIGKQSPDINQGVDRADPLEQGAGDQGLMFGYATNETDVLMPAPITYAHRLVQRQAEVRKNGTLPWLRPDAKSQVTFQYDDGKIVGIDAVVLSTQHSEEIDQKSLQEAVMEEIIKPILPAEWLTSATKFFINPTGRFVIGGPMGDCGLTGRKIIVDTYGGMARHGGGAFSGKDPSKVDRSAAYAARYVAKNIVAAGLADRCEIQVSYAIGVAEPTSIMVETFGTEKVPSEQLTLLVREFFDLRPYGLIQMLDLLHPIYKETAAYGHFGREHFPWEKTDKAQLLRDAAGLK
notes: Homotetramer (dimer of dimers); also called EcMAT; E. coli MAT; source: E. coli BL21(DE3) (pET24a), purified (Ni-NTA, SEC)

Source: paper PMC8406200, “SAMase of Bacteriophage T3 Inactivates Escherichia coli’s Methionine S-Adenosyltransferase by Forming Heteropolymers” (mBio, 2021)
